Data from US20050208487A1.
For at least one entry, the source does not settle the construct or the ends of the probe. For some assays here: Whether high values mean tight binding is not given here for every scale.

Columns and labels:
[1] = target: GnRH (gonadotropin-releasing hormone, L-decapeptide Pyr-His-Trp-Ser-Tyr-Gly-Leu-Arg-Pro-Gly-NH2) (UniProt Q28588); test: pull-down; conditions: buffer A, RT, synthetic protein, mirror-image nucleic acid, variant of GnRH-binding DNA Spiegelmer 1
[2] = target: GnRH (gonadotropin-releasing hormone, L-decapeptide Pyr-His-Trp-Ser-Tyr-Gly-Leu-Arg-Pro-Gly-NH2) (UniProt Q28588); test: binding assay; conditions: L-DNA (all nucleotides); equilibrium dialysis, 10 uM Spiegelmer, twice purified 3H-GnRH, 87±2%; 41% with unpurified GnRH; buffer A; synthetic protein; synthetic backbone; mirror-image nucleic acid

Work on “GCGGCGGAGGGTGGGCTGGGGCTGGGCCGGGGGGCGTGCGTAAGCACGTAGCCTCGCCGC [DNA Spiegelmer 4 (5'-phosphorylated)]” yielded a binding signal (% radioactivity retained) ([1]; L-DNA (all nucleotides), 5'-spacer 9 and 5'-phosphate, CPG 3000, 20.7% eluted, background 2.3%, 73% retained with twice purified GnRH (p128), label: covalently on 3000A lcaa-CPG, synthetic backbone) of 23.

With “GCGGCGGAGGGTGGGCTGGGGCTGGGCCGGGGGGCGTGCGTAAGCACGTAGCCTCGCCGC [GnRH-binding DNA Spiegelmer 1]” the binding signal [2] was 87 % bound.

With “GCGGCGGAGGGTGGGCTGGGGCTGGGCCGGGGGGCGTGCGTAAGCACGTAGCCTCGCCGC [DNA Spiegelmer 2 (5'-biotinylated)]” the binding signal (% radioactivity retained) ([1]; L-DNA (all nucleotides), neutravidin agarose, 34.5% eluted, background 2%, about 81% of GnRH, label: 5'-biotin, on neutravidin agarose, synthetic backbone) was 36.5.

For “GCGGCGGAGGGTGGGCTGGGGCTGGGCCGGGGGGCGTGCGTAAGCACGTAGCCTCGCCGC [D-enantiomer of the GnRH Spiegelmer]”, the binding signal (% radioactivity retained) ([1]; D-enantiomer control on Sepharose, 0.8% eluted, no interaction with GnRH, label: on NHS Sepharose 4 Fast Flow, single-stranded DNA, counted as no binding) was 4.2.

“GCGGCGGAGGGTGGGCTGGGGCTGGGCCGGGGGGCGTGCGTAAGCACGTAGCCTCGCCGC [DNA Spiegelmer 3 (5'-aminohexyl)]” was tested, and the binding signal (% radioactivity retained) ([1]; L-DNA (all nucleotides), 5'-aminohexyl, Sepharose, 34% eluted, background 6%, 45% pure 3H-GnRH so about 89% of GnRH, 89% retained with twice purified GnRH (p128), label: covalently on NHS Sepharose 4 Fast Flow, synthetic backbone) was 40.
